Measured values as given in patent publication US8486950B2, “Janus kinase inhibitor compounds and methods” (F. Hoffmann-La Roche AG, priority 2009, dated 2013).
Some of these results come from one statement about several compounds together.

Target: T1, TYK2 kinase domain (Homo sapiens, UniProt P29597)
T1 construct: made in house; host or cells: SF9 insect cells (recombinant baculovirus)
T1 sequence (P29597 873-1187): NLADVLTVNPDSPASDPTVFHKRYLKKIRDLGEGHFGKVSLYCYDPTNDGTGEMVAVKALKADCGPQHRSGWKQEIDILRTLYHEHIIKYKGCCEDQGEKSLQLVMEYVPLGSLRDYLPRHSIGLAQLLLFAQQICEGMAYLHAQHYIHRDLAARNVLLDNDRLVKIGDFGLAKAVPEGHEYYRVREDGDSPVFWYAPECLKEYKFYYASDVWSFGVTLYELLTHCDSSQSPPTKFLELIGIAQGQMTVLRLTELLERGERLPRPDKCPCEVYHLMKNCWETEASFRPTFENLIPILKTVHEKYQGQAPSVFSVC
Test: TYK2 inhibition assay (Caliper LabChip, isolated kinase domain)
Type: biochemical
Conditions: 25 uM ATP, values given as 'about'

Compound: Cc1cc(Nc2cc(NC(=O)c3c(Cl)cc(CN)cc3Cl)ccn2)nc(N(CCO)CCO)n1 [Example 427, 4-(aminomethyl)-N-(2-(2-(bis(2-hydroxyethyl)amino)-6-methylpyrimidin-4-ylamino)pyridin-4-yl)-2,6-dichlorobenzamide]
- Ki: < 3.5 µM

Compound: Cc1cc(Nc2cc(NC(=O)c3c(Cl)cc(CNCC4CC4)cc3Cl)ccn2)nc(NCCO)n1 [Example 428, 2,6-dichloro-4-((cyclopropylmethylamino)-methyl)-N-(2-(2-(2-hydroxyethylamino)-6-methylpyrimidin-4-ylamino)pyridin-4-yl)benzamide]
- Ki: < 3.5 µM

Compound: Cc1cc(Nc2cc(NC(=O)c3c(Cl)cc(CNCC4CC4)cc3Cl)ccn2)nc(N(C)CCO)n1 [Example 429, 2,6-dichloro-4-((cyclopropylmethylamino)-methyl)-N-(2-(2-((2-hydroxyethyl)(methyl)-amino)-6-methylpyrimidin-4-ylamino)pyridin-4-yl)benzamide]
- Ki: < 3.5 µM

Compound: Cc1cc(Nc2cc(NC(=O)c3c(Cl)cc(CNCC4CC4)cc3Cl)ccn2)nc(N(CCO)CCO)n1 [Example 430, N-(2-(2-(bis(2-hydroxyethyl)amino)-6-methylpyrimidin-4-ylamino)pyridin-4-yl)-2,6-dichloro-4-((cyclopropylmethylamino)-methyl)benzamide]
- Ki: < 3.5 µM

Compound: Cc1cc(Nc2cc(NC(=O)c3c(Cl)cc(CNCCO)cc3Cl)ccn2)nc(N2CCOCC2)n1 [Example 431, 2,6-dichloro-4-((2-hydroxyethylamino)-methyl)-N-(2-(6-methyl-2-morpholinopyrimidin-4-ylamino)pyridin-4-yl)benzamide]
- Ki: < 3.5 µM

Compound: Cc1cc(Nc2cc(NC(=O)c3c(Cl)cc(C#N)cc3Cl)ccn2)nc(C)n1 [Example 432, 2,6-dichloro-4-cyano-N-(2-(2,6-dimethylpyrimidin-4-ylamino)pyridin-4-yl)benzamide]
- Ki: < 3.5 µM

Compound: O=C(Nc1ccnc(Nc2cccc(C(=O)N3CCOCC3)n2)c1)c1c(Cl)cccc1Cl [Example 433, 2,6-dichloro-N-(2-(6-(morpholine-4-carbonyl)pyridin-2-ylamino)pyridin-4-yl)benzamide]
- Ki: < 3.5 µM

Compound: O=C(Nc1ccnc(Nc2ccc(CN3CCOCC3)cn2)c1)c1c(Cl)cccc1Cl [Example 434, 2,6-dichloro-N-(2-(5-(morpholinomethyl)-pyridin-2-ylamino)pyridin-4-yl)benzamide]
- Ki: < 3.5 µM

Compound: CN1CCCN(c2nccc(Nc3cc(NC(=O)c4c(Cl)cccc4Cl)ccn3)n2)CC1 [Example 435, 2,6-dichloro-N-(2-(2-(4-methyl-1,4-diazepan-1-yl)pyrimidin-4-ylamino)pyridin-4-yl)benzamide]
- Ki: < 3.5 µM

Compound: CN1CCN(Cc2ccc(Nc3cc(NC(=O)c4c(Cl)cccc4Cl)ccn3)nc2)CC1 [Example 436, 2,6-dichloro-N-(2-(5-((4-methylpiperazin-1-yl)methyl)pyridin-2-ylamino)pyridin-4-yl)benzamide]
- Ki: < 3.5 µM

Compound: Cc1cc(Nc2cc(NC(=O)c3c(Cl)cccc3Cl)ccn2)nc(N2CCOCC2)n1 [Example 437, 2,6-dichloro-N-(2-(6-methyl-2-morpholinopyrimidin-4-ylamino)pyridin-4-yl)benzamide]
- Ki: < 3.5 µM

Compound: Cc1cc(Nc2cc(NC(=O)c3c(Cl)cccc3Cl)ccn2)nc(N(C)C)n1 [Example 438, 2,6-dichloro-N-(2-(2-(dimethylamino)-6-methylpyrimidin-4-ylamino)pyridin-4-yl)benzamide]
- Ki: < 3.5 µM

Compound: CN1CCN(c2cccc(Nc3cc(NC(=O)c4c(Cl)cccc4Cl)ccn3)n2)CC1 [Example 439, 2,6-dichloro-N-(2-(6-(4-methylpiperazin-1-yl)pyridin-2-ylamino)pyridin-4-yl)benzamide]
- Ki: < 3.5 µM

Compound: O=C(Nc1ccnc(Nc2cccc(N3CCOCC3)n2)c1)c1c(Cl)cccc1Cl [Example 440, 2,6-dichloro-N-(2-(6-morpholinopyridin-2-ylamino)pyridin-4-yl)benzamide]
- Ki: < 3.5 µM

Compound: O=C(Nc1ccnc(Nc2cccc(OCCN3CCCC3)n2)c1)c1c(Cl)cccc1Cl [Example 441, 2,6-dichloro-N-(2-(6-(2-(pyrrolidin-1-yl)ethoxy)pyridin-2-ylamino)pyridin-4-yl)benzamide]
- Ki: < 3.5 µM

Compound: COc1cccc(Nc2cc(NC(=O)c3c(Cl)cccc3Cl)ccn2)n1 [Example 442, 2,6-dichloro-N-(2-(6-methoxypyridin-2-ylamino)pyridin-4-yl)benzamide]
- Ki: < 3.5 µM

Compound: O=C(Nc1ccnc(Nc2cccc(CO)n2)c1)c1c(Cl)cccc1Cl [Example 443, 2,6-dichloro-N-(2-(6-(hydroxymethyl)pyridin-2-ylamino)pyridin-4-yl)benzamide]
- Ki: < 3.5 µM

Compound: CN1CCN(C(=O)c2cccc(Nc3cc(NC(=O)c4c(Cl)cccc4Cl)ccn3)n2)CC1 [Example 444, 2,6-dichloro-N-(2-(6-(4-methylpiperazine-1-carbonyl)pyridin-2-ylamino)pyridin-4-yl)benzamide]
- Ki: < 3.5 µM

Compound: Cc1nc(Nc2cc(NC(=O)c3c(Cl)cccc3Cl)ccn2)cc(N(C)C)n1 [Example 445, 2,6-dichloro-N-(2-(6-(dimethylamino)-2-methylpyrimidin-4-ylamino)pyridin-4-yl)benzamide]
- Ki: < 3.5 µM

Compound: Cc1nc(Nc2cc(NC(=O)c3c(Cl)cccc3Cl)ccn2)cc(N2CCOCC2)n1 [Example 446, 2,6-dichloro-N-(2-(2-methyl-6-morpholinopyrimidin-4-ylamino)pyridin-4-yl)benzamide]
- Ki: < 3.5 µM

Compound: CN(C)c1ccc(Nc2cc(NC(=O)c3c(Cl)cccc3Cl)ccn2)nc1 [Example 447, 2,6-dichloro-N-(2-(5-(dimethylamino)pyridin-2-ylamino)pyridin-4-yl)benzamide]
- Ki: < 3.5 µM

Compound: O=C(Nc1ccnc(Nc2cc(N3CCOCC3)ccn2)c1)c1c(Cl)cccc1Cl [Example 448, 2,6-dichloro-N-(2-(4-morpholinopyridin-2-ylamino)pyridin-4-yl)benzamide]
- Ki: < 3.5 µM

Compound: C[C@@H](O)Cn1cc(Nc2cc(NC(=O)c3c(Cl)cccc3Cl)ccn2)cn1 [Example 449, (R)-2,6-dichloro-N-(2-(1-(2-hydroxypropyl)-1H-pyrazol-4-ylamino)pyridin-4-yl)benzamide]
- Ki: < 3.5 µM

Compound: CN1CCC(n2cc(Nc3cc(NC(=O)c4c(Cl)cccc4Cl)ccn3)cn2)CC1 [Example 450, 2,6-dichloro-N-(2-(1-(1-methylpiperidin-4-yl)-1H-pyrazol-4-ylamino)pyridin-4-yl)benzamide]
- Ki: < 3.5 µM

Compound: CN(C)c1cncc(Nc2cc(NC(=O)c3c(Cl)cccc3Cl)ccn2)n1 [Example 451, 2,6-dichloro-N-(2-(6-(dimethylamino)pyrazin-2-ylamino)pyridin-4-yl)benzamide]
- Ki: < 3.5 µM

Compound: CN1CCN(c2cncc(Nc3cc(NC(=O)c4c(Cl)cccc4Cl)ccn3)n2)CC1 [Example 452, 2,6-dichloro-N-(2-(6-(4-methylpierazin-1-yl)pyrazin-2-ylamino)pyridin-4-yl)benzamide]
- Ki: < 3.5 µM

Compound: O=C(Nc1ccnc(Nc2cncc(N3CCOCC3)n2)c1)c1c(Cl)cccc1Cl [Example 453, 2,6-dichloro-N-(2-(6-morpholinopyrazin-2-ylamino)pyridin-4-yl)benzamide]
- Ki: < 3.5 µM

Compound: COc1cncc(Nc2cc(NC(=O)c3c(Cl)cccc3Cl)ccn2)n1 [Example 454, 2,6-dichloro-N-(2-(6-methoxypyrazin-2-ylamino)pyridin-4-yl)benzamide]
- Ki: < 3.5 µM
